According to patent publication US20230158034A1, “CO-TREATMENT WITH CDK4/6 AND CDK2 INHIBITORS TO SUPPRESS TUMOR ADAPTATION TO CDK2 INHIBITORS” (Pfizer Inc., priority 2020, published 2023):
Results are given in words; binding and its absence hold for the method and conditions named. Binding seen in cells or lysates may run through a third protein. Some results given as binding are weak or reduced against the parent protein; the word gives no strength.

Chains of the proteins cited; added tags and fusions are not shown. Residues count along the entry.
UniProt P11802, residues 2-303: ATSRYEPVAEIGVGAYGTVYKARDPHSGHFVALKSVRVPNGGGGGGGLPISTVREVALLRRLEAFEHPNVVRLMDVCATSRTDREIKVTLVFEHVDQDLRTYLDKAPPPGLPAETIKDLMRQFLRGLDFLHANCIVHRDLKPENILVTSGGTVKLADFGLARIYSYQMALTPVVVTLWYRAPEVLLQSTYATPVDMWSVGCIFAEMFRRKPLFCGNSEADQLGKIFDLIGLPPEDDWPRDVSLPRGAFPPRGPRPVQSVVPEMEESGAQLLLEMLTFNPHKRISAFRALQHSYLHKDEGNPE
UniProt Q00534: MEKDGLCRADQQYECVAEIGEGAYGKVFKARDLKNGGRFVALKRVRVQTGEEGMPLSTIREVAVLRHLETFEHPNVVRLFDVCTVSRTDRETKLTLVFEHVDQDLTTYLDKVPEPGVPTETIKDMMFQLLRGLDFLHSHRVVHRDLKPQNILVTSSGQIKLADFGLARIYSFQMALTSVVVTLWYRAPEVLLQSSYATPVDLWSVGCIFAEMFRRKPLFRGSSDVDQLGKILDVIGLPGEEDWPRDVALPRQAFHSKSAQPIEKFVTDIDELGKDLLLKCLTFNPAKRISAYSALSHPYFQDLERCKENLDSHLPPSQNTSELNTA
UniProt P30281: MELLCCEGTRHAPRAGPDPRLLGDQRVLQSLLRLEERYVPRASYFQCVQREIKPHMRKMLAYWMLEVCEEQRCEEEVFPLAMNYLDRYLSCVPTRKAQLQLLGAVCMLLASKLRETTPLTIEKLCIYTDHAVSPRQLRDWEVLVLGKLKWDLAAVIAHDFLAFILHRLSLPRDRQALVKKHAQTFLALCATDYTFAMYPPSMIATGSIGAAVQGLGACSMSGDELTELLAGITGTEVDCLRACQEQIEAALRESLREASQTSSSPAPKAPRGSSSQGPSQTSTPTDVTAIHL

Experiments:
[1] = target: CDK4 (human) (UniProt P11802); experiment: co-immunoprecipitation with anti-CDK4 antibody, western blot for Cyclin D3 (FIG. 11F)
[2] = target: CDK6 (human) (UniProt Q00534); experiment: co-immunoprecipitation of CDK6 from MCF10A lysates (24 hr DMSO or 100 nM PF3600), western blot for Cyclin D3
[3] = target: CDK6 (human) (UniProt Q00534); experiment: co-immunoprecipitation with anti-CDK6 antibody, western blot for Cyclin D3 (FIG. 11F)
[4] = target: CDK4 (human) (UniProt P11802); experiment: co-immunoprecipitation of CDK4 from MCF10A lysates (24 hr DMSO or 100 nM PF3600), western blot for Cyclin D3

Measured: binding

Cyclin D3 (from UniProt P30281 1-292)
binds: all assays above
